Results: PMC10026764, “Overcoming the imatinib-resistant BCR-ABL mutants with new ureidobenzothiazole chemotypes endowed with potent and broad-spectrum anticancer activity” (Journal of Enzyme Inhibition and Medicinal Chemistry, 2023)

System: DDR1
Assay: Kinase selectivity test against DDR1
Format: biochemical
Conditions: IC50 DDR1 / IC50 BCR-ABL
Method: On the other hand, to gain certain insights about the kinase selectivity of this array of ureidobenzothiazoles, compounds 2a and 2b were tested against DDR1 (Figure 4). Discoidin domain receptors (DDR1/2) are transmembrane receptor tyrosine kinases (RTKs), activated by fibrillar collagens. DDR1/2 and BCR-ABL share almost 61% sequence similarities in their ATP binding domains. […] This observation points out the merit of these ureidobenzothiazoles over the known BCR-ABL inhibitors in achieving exceptional selectivity towards BCR-ABL.

CCN1CCN(c2ccc(NC(=O)Nc3nc4ccc(-c5ccccc5OC)cc4s3)cc2)CC1 [Compound 2b]
selectivity for BCR-ABL over DDR1: 284 folds

COc1ccccc1-c1ccc2nc(NC(=O)Nc3ccc(N4CCN(C)CC4)cc3)sc2c1 [Compound 2a]
selectivity for BCR-ABL over DDR1: 130 folds
